# Experiment: Effective permeability of compound in PBS buffer at pH 7.4 at 25 ug/ml incubated for 20 hrs by PAMPA-BBB assay
structure (smiles),measurement,value
COc1cc2c(cc1OC)C(=O)C(CC1CCN(Cc3ccccc3)CC1)C2 (stereo unspecified) [DONEPEZIL],"Papp at 20 h, 25 ug/ml",6.89 ×10⁻⁶ cm/s
